This assay addresses P21-activated kinase 4 (PAK4) (human (endogenous in A549-res and NCI-H520-res)) (UniProt O96013). Kind of assay: co-IP; lysates of A549-res and NCI-H520-res cells (6 x 10^6 cells, 400 ul lysis buffer, 4 °C); immunoprecipitated with 4 ug PAK4 or MEK1 antibody and protein G plus/protein A-agarose, 4 °C, 16 h; western blot with anti-MEK1 or anti-PAK4.

The chains behind the UniProt entries cited, without tags or fusion partners.
UniProt O96013: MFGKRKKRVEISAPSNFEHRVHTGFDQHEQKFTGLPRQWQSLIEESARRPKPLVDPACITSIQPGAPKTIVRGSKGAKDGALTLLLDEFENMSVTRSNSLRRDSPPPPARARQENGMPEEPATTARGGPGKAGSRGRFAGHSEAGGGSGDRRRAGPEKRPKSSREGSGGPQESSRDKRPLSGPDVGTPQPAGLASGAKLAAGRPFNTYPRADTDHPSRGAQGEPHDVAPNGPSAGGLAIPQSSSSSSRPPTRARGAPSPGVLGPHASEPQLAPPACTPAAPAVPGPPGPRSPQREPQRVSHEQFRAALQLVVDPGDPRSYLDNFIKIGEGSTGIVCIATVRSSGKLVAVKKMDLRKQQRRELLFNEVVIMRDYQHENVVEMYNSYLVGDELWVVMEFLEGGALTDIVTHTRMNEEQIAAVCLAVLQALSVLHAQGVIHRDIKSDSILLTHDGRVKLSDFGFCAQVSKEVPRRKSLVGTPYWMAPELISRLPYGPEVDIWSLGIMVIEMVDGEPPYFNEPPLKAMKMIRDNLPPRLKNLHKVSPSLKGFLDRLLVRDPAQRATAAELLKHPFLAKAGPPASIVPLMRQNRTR

No constants are given. Whether binding was seen depends on the method and setting. In cells and extracts the contact can be indirect. Some binding calls cover weakened binding; strength is not graded here.

On to “mitogen-activated protein kinase kinase 1 (MAPKK1, MEK1) (from UniProt Q02750 1-393)”, for which the binding entry is listed as “binds”.

The values above are taken from publication PMC10796919.
